Source: PubChem BioAssay AID2685 (National Center for Advancing Translational Sciences (NCATS), 2010)
Out of some 320,000 compounds screened, about 2,100 (0.66%) were called active. The shares of active, inactive and inconclusive entries below differ from those in the screen. Calls come from the whole dose curve; as a rule, active = well fitted inhibition curve with a large enough effect in the signal ratio, with a control signal flat (not every such curve was filed as active); inconclusive = small, poorly fitted or top-dose-only effect, or effect the other way, or a change in a side signal; inactive = flat fitted curve, though single readings scatter; the % refers to the signal ratio. A potency beside an inconclusive call is a rough fit, not a confirmed value.

Experiment: qHTS Assay for Lipid Storage Modulators in Drosophila S3 Cells
Details: BODIPY lipid droplet fluorescence, 18-24 h, cells fed with added oleic acid; lipid storage change, negative = inhibition: at 46.1 µM (top of the series) unless noted
Method in brief: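 Laser-scanning cytometry quantifies lipid droplet accumulation (500–530 nm total intensity; droplet/cell object ratio) in oleic acid-fed (400 uM added) Drosophila S3 cells treated with a concentration series. 20 uM Triacsin C defined 100% inhibition.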
% is set by controls: 0 for no effect and ±100 for the full control effect; potency is the fitted concentration of half-maximal effect.

Lipid storage change, negative = inhibition, inactive:
O=C1CCCC(O)=C1N=Nc1c(Cl)cc(Cl)cc1Cl, COc1cc(OC)cc(C(=O)N2CCN(C(=O)c3ccc(OC)c(OC)c3)CC2)c1, CCOc1ccc(NC(=O)CCN2CCCCC2)cc1, CC1CCN(CCCNC(=O)C2CCN(S(=O)(=O)N3CCC4(CC3)OCCO4)CC2)CC1

Lipid storage change, negative = inhibition, inconclusive:
Cc1ccc(-n2ncc(Cl)c2C(=O)NCc2ccccc2)cc1 6.31%, O=C(N/N=C/c1ccc[nH]1)c1cc(-c2cccs2)nc2ccccc12 -30.4% [at 0.00295 µM], Cc1cc(NC(=O)CCCN2C(=O)c3cccc4cccc(c34)C2=O)no1 3.09%, COc1ccc(S(=O)(=O)N2CCCC(C(=O)Nc3ccc(NC(=O)c4ccccn4)cc3)C2)cc1 (centres undefined) 204%, Cc1ccc(Oc2coc3cc(O)ccc3c2=O)cc1 -23.1%, CCN(CC)S(=O)(=O)c1ccc(NC(=O)c2cnc(C)cn2)cc1 31%, CC(=O)c1ccc(NC(=O)CN2C(=O)CCC2=O)cc1 -33.3%, O=C(c1ccc(OCc2cn3ccccc3n2)cc1)N1CCN(S(=O)(=O)c2ccccc2F)CC1, O=C(Nc1ncn[nH]1)c1cc(S(=O)(=O)Nc2ccc(Cl)cc2)ccc1Cl 10.1%, Cc1ccc(NC(=O)COc2ccc(/C=C3/NC(=O)NC3=O)cc2)cc1 -14.1%, COc1ccc(S(=O)(=O)N2c3ccccc3OCC2C(C)(C)C)cc1 (centres undefined) 24.8%, C[C@H](NC(=O)c1nc[nH]c1C(=O)NCCCCCN)C(=O)OCc1ccccc1 20.1%, Cc1nc(NCCc2ccc(F)cc2)c2nnn(Cc3ccccc3)c2n1 62.6%, O=C(CNC(=O)c1ccco1)OCc1cccc(Cl)c1 -2.7%, COc1ccc(C(=O)N2CCN(c3ccccc3OC)CC2)cc1 6.97%, O=C(CN1C(=O)C2C3C=CC(C3)C2C1=O)Nc1nncs1 (centres undefined) 16.8%, COc1ccc(CCNC(=O)c2cc(S(=O)(=O)N3CCOCC3)cn2C)cc1OC -11%, Cc1ccc(NC(=O)CN(C)C(=O)c2ccc(COc3ccccc3)cc2)cc1, CCOc1ccc(CCNC(=O)c2cccnc2N2CCCC2)cc1OCC 8.76%, COC(=O)CC(NS(=O)(=O)c1cccs1)c1ccc2c(c1)OCO2 (centres undefined) -20.6%, CCOC(=O)CN1C(=O)N[C@@H](c2ccccc2)C(C(C)=O)=C1C 0.59%, C/C(=N\NC(=O)c1ccc(CSc2nncn2C)cc1)c1ccc2ccccc2c1 29.5%, COC(=O)c1sc(-c2cccs2)cc1NC(=O)/C=C/C(=O)O 2.92%, Cc1ccc(C(C(=O)NC2CCCCC2)N(CCCN2CCOCC2)C(=O)c2snc(C(N)=O)c2N)cc1 (centres undefined) 115%, O=C(NCC1CCCO1)c1cc(-c2ccco2)nc2ccccc12 (centres undefined) -8.14%, O=C1c2ccccc2-c2nnc(-c3ccc(O)cc3)cc21 -2.01% [at 9.22 µM], COc1cc2nc(N3CCN(C(=O)[C@H]4COc5ccccc5O4)CC3)nc(N)c2cc1OC -23.1%, c1ccc2c(c1)nnn2-c1ncnc2sccc12 32%, COc1ccc(-c2cc3ccccc3n2CC(O)CN2CCOCC2)cc1 (centres undefined) 11.9%, CCCCn1c(C)cc2c(c1=O)C1O[C@](c3ccc(OC)cc3)(Cc3cc(OC)c(OC)cc31)O2 2.47% [at 9.22 µM], COc1ccc(-c2nc(CS(=O)(=O)CC(=O)NCCc3ccccc3)c(C)o2)cc1 30.3%, Clc1ccc(-c2nnc(CSc3nnc(-c4cccs4)n3Cc3ccccc3)o2)cc1 -32.4%

Potency, inconclusive:
CCOc1cccc(NC(=O)C2CCCN(S(=O)(=O)c3ccc(OC)cc3)C2)c1 (centres undefined) 29.1 µM [falling, partial curve, poor fit], c1ccc(-c2c3ccccc3nc3[nH]c4ccccc4c23)cc1 4.11 µM [activator, partial curve], O=C(COc1ccccc1[N+](=O)[O-])N(Cc1ccccc1)c1ccccn1 0.116 µM [falling, full curve, poor fit], COC(=O)C1=C(C)NC(=O)NC1c1ccco1 (centres undefined) 1.64 µM [falling, partial curve], CS(=O)(=O)N(CC(=O)N1CCN(Cc2ccc3c(c2)OCO3)CC1)c1ccc2c(c1)OCO2 6.51 µM [activator, single point], CN(C)Cc1ccc(CNC(=O)c2ccc(Cl)c(S(=O)(=O)NC3CC3)c2)cc1 2.91 µM [falling, partial curve, poor fit], C/C(Cn1nnc([N+](=O)[O-])n1)=N\NC(=O)c1ccccc1O 16.4 µM [falling, partial curve], CCCc1nc2nc(C)c(NS(=O)(=O)c3ccc4c(c3)CCCC4)c(=O)n2[nH]1 5.8 µM [activator, partial curve], O=C(OCCOc1cccc(Cl)c1)c1ccc2ncsc2c1 29.1 µM [activator, single point], CN(C)CC(=O)Nc1cc(C(F)(F)F)ccc1Cl 29.1 µM [falling, single point], O=C(Nc1ccc(N2CCOCC2)c(Cl)c1)c1ccc(-n2cnnc2)cc1 6.51 µM [falling, single point], CS(=O)(=O)c1cccc(C(=O)OCC(=O)Nc2ccc3c(c2)OCO3)c1 0.82 µM [falling, single point], Cc1cccc([N+](=O)[O-])c1C(=O)O 25.9 µM [activator, partial curve, poor fit]
